These are yes or no findings as the source states them, for the method shown. Blank lines part the entries; values can stand above or below the molecule they belong to.
Biological target: ARF13 (Arabidopsis thaliana) (UniProt Q9FX25)
Assay: two-hybrid; S. cerevisiae AH109 co-transformed with pGBKT7-ARF (bait) and pGADT7-Aux/IAA (prey); growth on SD/-Ade-His-Leu-Trp against SD/-Leu/-Trp; at least 10 independent colonies; serial dilutions for strength

By UniProt entry, the sequences of proteins in these tests, tags left out. Where a name states a change or a piece, a line headed by the entry shows the natural chain unless it says otherwise.
UniProt Q9FX25: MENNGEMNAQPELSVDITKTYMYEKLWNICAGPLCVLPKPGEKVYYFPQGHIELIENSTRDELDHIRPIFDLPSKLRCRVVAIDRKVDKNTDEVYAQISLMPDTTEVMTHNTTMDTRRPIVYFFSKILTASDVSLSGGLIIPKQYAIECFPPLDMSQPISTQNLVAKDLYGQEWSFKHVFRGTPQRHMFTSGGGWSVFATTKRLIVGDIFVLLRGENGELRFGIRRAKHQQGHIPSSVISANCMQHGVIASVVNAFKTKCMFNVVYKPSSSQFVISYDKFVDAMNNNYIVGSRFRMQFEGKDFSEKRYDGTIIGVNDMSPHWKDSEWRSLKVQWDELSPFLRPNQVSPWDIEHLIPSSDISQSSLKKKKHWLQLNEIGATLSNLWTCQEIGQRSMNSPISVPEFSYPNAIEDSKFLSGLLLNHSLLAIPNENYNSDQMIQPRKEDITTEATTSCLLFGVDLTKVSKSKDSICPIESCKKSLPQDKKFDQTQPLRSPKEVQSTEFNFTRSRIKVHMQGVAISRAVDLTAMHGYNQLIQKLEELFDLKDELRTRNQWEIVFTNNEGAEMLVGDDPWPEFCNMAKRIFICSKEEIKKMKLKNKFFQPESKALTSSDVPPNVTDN
UniProt Q38825: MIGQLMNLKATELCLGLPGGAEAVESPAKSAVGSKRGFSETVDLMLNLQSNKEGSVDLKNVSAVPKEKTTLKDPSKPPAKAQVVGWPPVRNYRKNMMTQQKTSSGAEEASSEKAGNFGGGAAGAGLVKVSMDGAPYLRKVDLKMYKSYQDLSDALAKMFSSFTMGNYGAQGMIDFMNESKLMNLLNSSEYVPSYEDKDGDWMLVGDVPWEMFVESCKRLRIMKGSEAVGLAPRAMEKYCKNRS
UniProt Q38832: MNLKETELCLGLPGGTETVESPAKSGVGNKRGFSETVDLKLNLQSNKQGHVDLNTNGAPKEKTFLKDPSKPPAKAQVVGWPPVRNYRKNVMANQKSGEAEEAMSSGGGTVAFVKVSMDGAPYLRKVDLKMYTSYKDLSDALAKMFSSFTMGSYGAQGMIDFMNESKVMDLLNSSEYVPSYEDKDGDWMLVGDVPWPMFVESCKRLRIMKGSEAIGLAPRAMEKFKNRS
UniProt P93830: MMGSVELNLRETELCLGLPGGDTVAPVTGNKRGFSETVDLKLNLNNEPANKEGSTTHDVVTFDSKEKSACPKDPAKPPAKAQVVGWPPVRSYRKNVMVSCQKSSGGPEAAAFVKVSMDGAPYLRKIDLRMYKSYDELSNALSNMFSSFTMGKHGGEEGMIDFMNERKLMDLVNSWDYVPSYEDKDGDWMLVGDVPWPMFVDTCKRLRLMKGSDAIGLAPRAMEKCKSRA

Molecule: Aux/IAA7 (from UniProt Q38825 1-243)
binding: no binding

Molecule: Aux/IAA14 (from UniProt Q38832 1-228)
binding: no binding

B1: Aux/IAA2 (protein, UniProt P49678 1-174)
chain: MAYEKVNELNLKDTELCLGLPGRTEKIKEEQEVSCVKSNNKRLFEETRDEEESTPPTKTQIVGWPPVRSSRKNNNSVSYVKVSMDGAPYLRKIDLKTYKNYPELLKALENMFKVMIGEYCEREGYKGSGFVPTYEDKDGDWMLVGDVPWDMFSSSCKRLRIMKGSDAPALDSSL
binding: no binding

B2: Aux/IAA15 (protein, UniProt Q9C966 1-179)
chain: MSPEEYVRVWPDSGDLGGTELTLALPGTPTNASEGPKKFGNKRRFLETVDLKLGEAHENNYISSMVTNDQLVGWPPVATARKTVRRKYVKVALDGAAYLRKVDLGMYDCYGQLFTALENMFQGIITICRVTELERKGEFVATYEDKDGDLMLVGDVPWMMFVESCKRMRLMKTGDAIGL
binding: no binding

B8: Aux/IAA13 (protein, UniProt Q38831 1-247)
chain: MITELEMGKGESELELGLGLSLGGGTAAKIGKSGGGGAWGERGRLLTAKDFPSVGSKRAADSASHAGSSPPRSSSQVVGWPPIGSHRMNSLVNNQATKSAREEEEAGKKKVKDDEPKDVTKKVNGKVQVGFIKVNMDGVAIGRKVDLNAHSSYENLAQTLEDMFFRTNPGTVGLTSQFTKPLRLLDGSSEFVLTYEDKEGDWMLVGDVPWRMFINSVKRLRVMKTSEANGLAARNQEPNERQRKQPV
binding: no binding

B9: Aux/IAA6 (protein, UniProt Q38824 1-189)
chain: MAKEGLALEITELRLGLPGDNYSEISVCGSSKKKKRVLSDMMTSSALDTENENSVVSSVEDESLPVVKSQAVGWPPVCSYRRKKNNEEASKAIGYVKVSMDGVPYMRKIDLGSSNSYINLVTVLENLFGCLGIGVAKEGKKCEYIIIYEDKDRDWMLVGDVPWQMFKESCKRLRIVKRSDATGFGLQQD
binding: no binding

B12: Aux/IAA4 (protein, UniProt P33077 1-186)
chain: MEKVDVYDELVNLKATELRLGLPGTEETVSCGKSNKRVLPEATEKEIESTGKTETASPPKAQIVGWPPVRSYRKNNVQTKKSESEGQGNYVKVSMDGAPYLRKIDLTMYKQYPELMKSLENMFKFSVGEYFEREGYKGSDFVPTYEDKDGDWMLVGDVPWEMFVSSCKRLRIMKGSEVKGLGCGGL
binding: no binding

B13: Aux/IAA5 (protein, UniProt P33078 1-163)
chain: MANESNNLGLEITELRLGLPGDIVVSGESISGKKRASPEVEIDLKCEPAKKSQVVGWPPVCSYRRKNSLERTKSSYVKVSVDGAAFLRKIDLEMYKCYQDLASALQILFGCYINFDDTLKESECVPIYEDKDGDWMLAGDVPWEMFLGSCKRLRIMKRSCNRG
binding: no binding

B15: Aux/IAA12 (protein, UniProt Q38830 1-239)
chain: MRGVSELEVGKSNLPAESELELGLGLSLGGGAWKERGRILTAKDFPSVGSKRSAESSSHQGASPPRSSQVVGWPPIGLHRMNSLVNNQAMKAARAEEGDGEKKVVKNDELKDVSMKVNPKVQGLGFVKVNMDGVGIGRKVDMRAHSSYENLAQTLEEMFFGMTGTTCREKVKPLRLLDGSSDFVLTYEDKEGDWMLVGDVPWRMFINSVKRLRIMGTSEASGLAPRRQEQKDRQRNNPV
binding: no binding

B16: Aux/IAA3 (protein, UniProt Q38822 1-189)
chain: MDEFVNLKETELRLGLPGTDNVCEAKERVSCCNNNNKRVLSTDTEKEIESSSRKTETSPPRKAQIVGWPPVRSYRKNNIQSKKNESEHEGQGIYVKVSMDGAPYLRKIDLSCYKGYSELLKALEVMFKFSVGEYFERDGYKGSDFVPTYEDKDGDWMLIGDVPWEMFICTCKRLRIMKGSEAKGLGCGV
binding: no binding

B18: Aux/IAA1 (protein, UniProt P49677 1-168)
chain: MEVTNGLNLKDTELRLGLPGAQEEQQLELSCVRSNNKRKNNDSTEESAPPPAKTQIVGWPPVRSNRKNNNNKNVSYVKVSMDGAPYLRKIDLKMYKNYPELLKALENMFKFTVGEYSEREGYKGSGFVPTYEDKDGDWMLVGDVPWDMFSSSCQKLRIMKGSEAPTAL
binding: no binding

Next, values leading:

binding: no binding
Molecule: Aux/IAA17 (from UniProt P93830 1-229)

binding: no binding
B3: Aux/IAA16 (protein, UniProt O24407 1-236)
chain: MINFEATELRLGLPGGNHGGEMAGKNNGKRGFSETVDLKLNLSSTAMDSVSKVDLENMKEKVVKPPAKAQVVGWPPVRSFRKNVMSGQKPTTGDATEGNDKTSGSSGATSSASACATVAYVKVSMDGAPYLRKIDLKLYKTYQDLSNALSKMFSSFTIGNYGPQGMKDFMNESKLIDLLNGSDYVPTYEDKDGDWMLVGDVPWEMFVDSCKRIRIMKGSEAIGLAPRALEKCKNRS

binding: no binding
B4: Aux/IAA32 (protein, UniProt Q8RYC6 1-191)
chain: MDPNTPADFFKGSSKFHTYYSQTKKGGGVIDLGLSLRTIQHETYLPPARMIGLDGYGELIDWSQPSYNSITQLKSEDTGHQRLAQGYYNNEGESRGKYAYVKVNLDGLVVGRKVCLVDQGAYATLALQLNDMFGMQTVSGLRLFQTESEFSLVYRDREGIWRNVGDVPWKEFVESVDRMRIARRNDALLPF

binding: no binding
B5: Aux/IAA28 (protein, UniProt Q9XFM0 1-175)
chain: MEEEKRLELRLAPPCHQFTSNNNINGSKQKSSTKETSFLSNNRVEVAPVVGWPPVRSSRRNLTAQLKEEMKKKESDEEKELYVKINMEGVPIGRKVNLSAYNNYQQLSHAVDQLFSKKDSWDLNRQYTLVYEDTEGDKVLVGDVPWEMFVSTVKRLHVLKTSHAFSLSPRKHGKE

binding: no binding
B6: Aux/IAA31 (protein, UniProt Q8H174 1-158)
chain: MEVSNSCSSFSSSSVDSTKPSPSESSVNLSLSLTFPSTSPQREARQDWPPIKSRLRDTLKGRRLLRRGDDTSLFVKVYMEGVPIGRKLDLCVFSGYESLLENLSHMFDTSIICGNRDRKHHVLTYEDKDGDWMMVGDIPWDMFLETVRRLKITRPERY

binding: no binding
B7: Aux/IAA27 (protein, UniProt Q9ZSY8 1-305)
chain: MSVSVAAEHDYIGLSEFPTMEATTMSDKTKTRDNNNGLNFKATELRLGLPGSESPERVDSRFLALNKSSCPVSGAKRVFSDAINDSNKWVFSPGSTTATGDVGSGSGPRTSVVKDGKSTTFTKPAVPVKEKKSSATAPASKAQVVGWPPIRSFRKNSMASSQSQKPGNNSETEEAEAKSGPEQPCLYVKVSMEGAPYLRKIDLKTYKSYLELSSALEKMFSCFTIGQFGSHGGCGRDGLNESRLTDLLRGSEYVVTYEDKDSDWMLVGDVPWEMFICSCKKLRIMKSSEAIGLAPRVMEKCRSRN

binding: no binding
B10: Aux/IAA30 (protein, UniProt Q9M1R4 1-172)
chain: MGRGRSSSSSSIESSCKSNPFGVSSSNTRNLSTDLRLGLSFGSSSGQYYNGGDNHEYDGVGAAEEMMIMEEEEQNECNSVGSFYVKVNMEGVPIGRKIDLLSLNGYHDLITTLDYMFNASILWAEEEDMCSEKSHVLTYADKEGDWMMVGDVPWEMFLSSVRRLKISRAYHY

binding: no binding
B11: Aux/IAA34 (protein, UniProt Q9C5X0 1-185)
chain: MYCSDPPHPLHLVASDKQQKDHKLILSWKKPTMDSDPLGVFPNSPKYHPYYSQTTEFGGVIDLGLSLRTIQHEIYHSSGQRYCSNEGYRRKWGYVKVTMDGLVVGRKVCVLDHGSYSTLAHQLEDMFGMQSVSGLRLFQMESEFCLVYRDEEGLWRNAGDVPWNEFIESVERLRITRRNDAVLPF

binding: no binding
B14: Aux/IAA33 (protein, UniProt Q9FKM7 1-171)
chain: MNSFEPQSQDSLQRRFHQDNSTTQQPRDTTTPFIPKPASKNHNNSNSSSGAAGRSFQGFGLNVEDDLVSSVVPPVTVVLEGRSICQRISLDKHGSYQSLASALRQMFVDGADSTDDLDLSNAIPGHLIAYEDMENDLLLAGDLTWKDFVRVAKRIRILPVKGNTRQVKRNE

binding: no binding
B17: Aux/IAA29 (protein, UniProt Q93WC4 1-251)
chain: MELDLGLSLSPHKSSKLGFNFDLNKHCAIEGAASCLGTEKLRFEATFGLGNVEENCYMPKQRLFALNGQPNEEDEDPLESESSIVYDDEEENSEVVGWPPVKTCMIKYGSYHHRHIRNHHHCPYHHRGRRITAMNNNISNPTTATVGSSSSSSISSRSSMYVKVKMDGVAIARKVDIKLFNSYESLTNSLITMFTEYEDCDREDTNYTFTFQGKEGDWLLRGDVTWKIFAESVHRISIIRDRPCAYTRCLF

binding: no binding
B19: Aux/IAA18 (protein, UniProt O24408 1-267)
chain: MEGYSRNGEISPKLLDLMIPQERRNWFHDEKNSVFKTEEKKLELKLGPPGEEDDDESMIRHMKKEPKDKSILSLAGKYFSPSSTKTTSHKRTAPGPVVGWPPVRSFRKNLASGSSSKLGNDSTTSNGVTLKNQKCDAAAKTTEPKRQGGMFVKINMYGVPIGRKVDLSAHNSYEQLSFTVDKLFRGLLAAQRDFPSSIEDEKPITGLLDGNGEYTLTYEDNEGDKMLVGDVPWQMFVSSVKRLRVIKTSEISSALTYGNGKQEKMRR

binding: no binding
B20: Aux/IAA20 (protein, UniProt O24410 1-175)
chain: MGRGRSSSSSSIESSSKSNPFGASSSTRNLSTDLRLGLSFGTSSGTQYFNGGYGYSVAAPAVEDAEYVAAVEEEEENECNSVGSFYVKVNMEGVPIGRKIDLMSLNGYRDLIRTLDFMFNASILWAEEEDMCNEKSHVLTYADKEGDWMMVGDVPWEMFLSTVRRLKISRANYHY

binding: no binding
B21: Aux/IAA19 (protein, UniProt O24409 1-197)
chain: MEKEGLGLEITELRLGLPGRDVAEKMMKKRAFTEMNMTSSGSNSDQCESGVVSSGGDAEKVNDSPAAKSQVVGWPPVCSYRKKNSCKEASTTKVGLGYVKVSMDGVPYLRKMDLGSSQGYDDLAFALDKLFGFRGIGVALKDGDNCEYVTIYEDKDGDWMLAGDVPWGMFLESCKRLRIMKRSDATGFGLQPRGVDE

binding: no binding
B22: Aux/IAA26 (protein, UniProt Q8LAL2 1-269)
chain: MEGCPRNREIGPKLLDLIPQGRKWYQEDKNNTDQEKKLELRLGPPGGDEEDHSAIKKKNTEIRNIKKETEDKSFHCFNGNHFSPSNKTTSVPHISQKRTAPGPVVGWPPVRSFRKNLASTSSSKLGNESSHGGQINKSDDGEKQVETKKEGMFVKINMDGVPIGRKVDLNAYNSYEQLSFVVDKLFRGLLAAQRDISDGQGEEKPIIGLLDGKGEFTLTYEDNEGDKMLVGDVPWQMFVSSVKRLRVIKSSEISSALTFGCSKQEKMMH
